Test results as given in US7834030B2, “Phenyl-[1,2,4]-oxadiazol-5-one derivatives, pharmaceutical compositions and therapeutic use thereof” (Sanofi-Aventis, priority 2005, dated 2010).
Some results were stated once for a whole list of compounds, not compound by compound.

biological target: T1, human PPARalpha (Homo sapiens, UniProt Q07869); experiment: cellular PPARalpha assay (GAL4 luciferase reporter, stably transfected HEK cell line); format: cell-based; conditions: limits printed with their own units (nM and μM); read-out: PPARalpha EC50 values, range over the examples
T1 construct: human PPARalpha receptor (amino acids S167-Y468); expressed in transfected cells; plasmid pcDNA3
T1 sequence (Q07869 167-468): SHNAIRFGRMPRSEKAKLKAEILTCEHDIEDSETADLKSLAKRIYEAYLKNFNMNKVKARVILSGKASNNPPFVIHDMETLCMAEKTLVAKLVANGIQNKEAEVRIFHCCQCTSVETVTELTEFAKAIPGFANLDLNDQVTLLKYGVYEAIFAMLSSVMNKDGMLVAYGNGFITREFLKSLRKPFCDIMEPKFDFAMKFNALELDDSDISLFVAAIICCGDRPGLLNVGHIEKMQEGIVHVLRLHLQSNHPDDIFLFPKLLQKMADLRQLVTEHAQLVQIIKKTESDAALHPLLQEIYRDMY
Method: The activity of the compounds was tested through the determination of EC50 values of PPAR agonists in the cellular PPARalpha assay. The potency of substances which bind to human PPARalpha and activate it in an agonistic manner was analyzed using a stably transfected HEK cell line (HEK=human embryo kidney) which is referred to here as PPARalpha reporter cell line. It contains two genetic elements, a luciferase reporter element (pdeltaM-GAL4-Luc-Zeo) and a PPARalpha fusion protein (GR-GAL4-humanPPARalpha-LBD) which mediates expression of the luciferase reporter element depending on a PPARalpha ligand. The stably and constitutively expressed fusion protein GR-GAL4-humanPPARalpha-LBD binds in the cell nucleus of the PPARalpha reporter cell line via the GAL4 protein portion to the GAL4 DNA binding motifs 5′-upstream of the luciferase reporter element which is stably integrated in the genome of the cell line. There is only weak expression of the luciferase reporter gene in the absence of a PPARalpha ligand if fatty acid-depleted fetal calf serum (cs-FCS) is used in the assay. PPARalpha ligands bind and activate the PPARalpha fusion protein and thereby stimulate the expression of the luciferase reporter gene. The luciferase which is formed can be detected by means of chemiluminescence via an appropriate substrate.
The PPARalpha reporter cell line was prepared in two stages. Firstly, the luciferase reporter element was constructed and stably transfected into HEK cells. For this purpose, five binding sites of the yeast transcription factor GAL4 (Accession # AF264724) were cloned in 5′-upstream of a 68 bp-long minimal MMTV promoter (Accession # V01175). The minimal MMTV promoter section contains a CCAAT box and a TATA element in order to enable efficient transcription by RNA polymerase II. The cloning and sequencing of the GAL4-MMTV construct took place in analogy to the description of Sambrook J. et. al. (Molecular cloning, Cold Spring Harbor Laboratory Press, 1989). Then the complete Photinus pyralis gene (Accession # M15077) was cloned in 3′-downstream of the GAL4-MMTV element. After sequencing, the luciferase reporter element consisting of five GAL4 binding sites, MMTV promoter and luciferase gene was recloned into a plasmid which confers zeocin resistance in order to obtain the plasmid pdeltaM-GAL4-Luc-Zeo. This vector was transfected into HEK cells in accordance with the statements in Ausubel, F. M. et al. (Current protocols in molecular biology, Vol. 1-3, John Wiley & Sons, Inc., 1995).
In a second step, the PPARalpha fusion protein (GR-GAL4-humanPPARalpha-LBD was introduced into the stable cell clone described. For this purpose, initially the cDNA coding for the N-terminal 76 amino acids of the glucocorticoid receptor (Accession # P04150) was linked to the cDNA section coding for amino acids 1-147 of the yeast transcription factor GAL4 (Accession # P04386). The cDNA of the ligand-binding domain of the human PPARalpha receptor (amino acids S167-Y468; Accession # S74349) was cloned in at the 3′-end of this GR-GAL4 construct. The fusion construct prepared in this way (GR-GAL4-humanPPARalpha-LBD) was recloned into the plasmid pcDNA3 (Invitrogen) in order to enable constitutive expression therein by the cytomegalovirus promoter. This plasmid was linearized with a restriction endonuclease and stably transfected into the previously described cell clone containing the luciferase reporter element. The finished PPARalpha reporter cell line which contains a luciferase reporter element and constitutively expresses the PPARalpha fusion protein (GR-GAL4-human PPARalpha-LBD) was isolated by selection with zeocin (0.5 mg/ml) and G418 (0.5 mg/ml).
The activity of PPARalpha agonists was determined in a 3-day assay, which is described below: […]

EC50, ≥ 5 nM:
CCC(Oc1cc(OC(F)F)c(-c2noc(=O)[nH]2)cc1F)c1sc(-c2ccc(C(F)(F)F)cc2)nc1CN1CCC(C(F)(F)F)CC1 (racemic) [Example 46, 3-(2-Difluoromethoxy-5-fluoro-4-{1-[2-(4-trifluoromethyl-phenyl)-4-(4-trifluoromethyl-piperidin-1-ylmethyl)-thiazol-5-yl]-propoxy}-phenyl)-4H-1,2,4-oxadiazol-5-one]
Cc1nc(-c2ccc(C(F)(F)F)cc2)sc1C(CCc1ccccc1)Oc1ccc(-c2noc(=O)[nH]2)c(Cl)c1 (racemic) [Example 7, 3-(2-Chloro-4-{1-[4-methyl-2-(4-trifluoromethyl-phenyl)-thiazol-5-yl]-3-phenyl-propoxy}-phenyl)-4H-[1,2,4]oxadiazol-5-one]
Cc1nc(-c2ccc(C(F)(F)F)cc2)sc1C(OCc1ccc(-c2noc(=O)[nH]2)cc1)C(F)(F)c1ccc(C(F)F)cc1 (racemic) [Example 33, 3-(4-{2-(4-Difluoromethyl-phenyl)-2,2-difluoro-1-[4-methyl-2-(4-trifluoromethyl-phenyl)-thiazol-5-yl]-ethoxymethyl}-phenyl)-4H-[1,2,4]oxadiazol-5-one]
Cc1nc(-c2ccc(C(F)(F)F)cc2)sc1C(OCc1ccc(-c2noc(=O)[nH]2)c2ccccc12)C(F)(F)F (racemic) [Example 26, 3-(4-{2,2,2-Trifluoro-1-[4-methyl-2-(4-trifluoromethyl-phenyl)-thiazol-5-yl]-ethoxymethyl}-naphthalen-1-yl)-4H-[1,2,4]oxadiazol-5-one]
Cc1nc(-c2ccc(C(F)(F)F)cc2)sc1C(OCc1ccc(-c2noc(=O)[nH]2)c2cccnc12)C(F)(F)F (racemic) [Example 25, 3-(8-{2,2,2-Trifluoro-1-[4-methyl-2-(4-trifluoromethyl-phenyl)-thiazol-5-yl]-ethoxymethyl}-quinolin-5-yl)-4H-[1,2,4]oxadiazol-5-one]
CCC(Oc1ccc(-c2noc(=O)[nH]2)c(Br)c1)c1sc(-c2ccc(C(F)(F)F)cc2)nc1C (racemic) [Example 11, 3-(2-Bromo-4-{1-[4-methyl-2-(4-trifluoromethyl-phenyl)-thiazol-5-yl]-propoxy}-phenyl)-4H-[1,2,4]oxadiazol-5-one]
CCC(Oc1cc(OC)c(-c2noc(=O)[nH]2)cc1F)c1sc(-c2ccc(C(F)(F)F)cc2)nc1C (racemic) [Example 40, 3-(5-Fluoro-2-methoxy-4-{1-[4-methyl-2-(4-trifluoromethyl-phenyl)-thiazol-5-yl]-propoxy}-phenyl)-4H-1,2,4-oxadiazol-5-one]
Cc1nc(-c2ccc(C(F)(F)F)cc2)sc1C(OCc1ccc(-c2noc(=O)[nH]2)c(Cl)c1)C(F)(F)F (racemic) [Example 23, 3-(2-Chloro-4-{2,2,2-trifluoro-1-[4-methyl-2-(4-trifluoromethyl-phenyl)-thiazol-5-yl]-ethoxymethyl}-phenyl)-4H-[1,2,4]oxadiazol-5-one]
CCC(OCc1ccc(-c2noc(=O)[nH]2)cc1)c1sc(-c2ccc(C(F)(F)F)cc2)nc1C (racemic) [Example 30, 3-(4-{1-[4-Methyl-2-(4-trifluoromethyl-phenyl)-thiazol-5-yl]-propoxymethyl}-phenyl)-4H-[1,2,4]oxadiazol-5-one]
CCC(Oc1ccc(-c2noc(=O)[nH]2)c(-c2ccc(F)cc2)c1)c1sc(-c2ccc(C(F)(F)F)cc2)nc1C (racemic) [Example 19, 3-(4′-Fluoro-5-{1-[4-methyl-2-(4-trifluoromethyl-phenyl)-thiazol-5-yl]-propoxy}-biphenyl-2-yl)-4H-[1,2,4]oxadiazol-5-one]
CCC(Oc1cc(OCC(F)(F)F)c(-c2noc(=O)[nH]2)cc1F)c1sc(-c2ccc(C(F)(F)F)cc2)nc1CN1CCC(C(F)(F)F)CC1 (stereo not shown) [Example 49, 3-(5-Fluoro-2-(2,2,2-trifluoro-ethoxy)-4-{1-[2-(4-trifluoromethyl-phenyl)-4-(4-trifluoromethyl-piperidin-1-ylmethyl)-thiazol-5-yl]-propoxy}-phenyl)-4H-1,2,4-oxadiazol-5-one]
Cc1nc(-c2ccc(C(F)(F)F)cc2)sc1C(Oc1ccc(-c2noc(=O)[nH]2)c(Cl)c1)C(F)(F)F (racemic) [Example 20, 3-(2-Chloro-4-{2,2,2-trifluoro-1-[4-methyl-2-(4-trifluoromethyl-phenyl)-thiazol-5-yl]-ethoxy}-phenyl)-4H-[1,2,4]oxadiazol-5-one]
CCC(Oc1cc(OC)c(-c2noc(=O)[nH]2)cc1F)c1sc(-c2ccc(C(F)(F)F)cc2)nc1CN1CCC(C(F)(F)F)CC1 (racemic) [Example 43, 3-(5-Fluoro-2-methoxy-4-{1-[2-(4-trifluoromethyl-phenyl)-4-(4-trifluoromethyl-piperidin-1-ylmethyl)-thiazol-5-yl]-propoxy}-phenyl)-4H-1,2,4-oxadiazol-5-one]
CCC(F)(F)C(OCc1ccc(-c2noc(=O)[nH]2)cc1)c1sc(-c2ccc(C(F)(F)F)cc2)nc1C (racemic) [Example 31, 3-(4-{2,2-Difluoro-1-[4-methyl-2-(4-trifluoromethyl-phenyl)-thiazol-5-yl]-butoxymethyl}-Phenyl)-4H-[1,2,4]oxadiazol-5-one]
CCC(Oc1ccc(-c2noc(=O)[nH]2)c(F)c1)c1sc(-c2ccc(C(F)(F)F)cc2)nc1C (racemic) [Example 35, 3-(2-Fluoro-4-{1-[4-methyl-2-(4-trifluoromethyl-phenyl)-thiazol-5-yl]-propoxy}-phenyl)-4H-1,2,4-oxadiazol-5-one]
CCC(Oc1cc(OCC(F)(F)F)c(-c2noc(=O)[nH]2)cc1F)c1sc(-c2ccc(C(F)(F)F)cc2)nc1C (racemic) [Example 47, 3-[5-Fluoro-4-{1-[4-methyl-2-(4-trifluoromethyl-phenyl)-thiazol-5-yl]-propoxy}-2-(2,2,2-trifluoro-ethoxy)-phenyl]-4H-1,2,4-oxadiazol-5-one]
Cc1nc(-c2ccc(C(F)(F)F)cc2)sc1C(Cc1ccccc1)Oc1ccc(-c2noc(=O)[nH]2)c(Cl)c1 (racemic) [Example 5, 3-(2-Chloro-4-{1-[4-methyl-2-(4-trifluoromethyl-phenyl)-thiazol-5-yl]-2-phenyl-ethoxy}-phenyl)-4H-[1,2,4]oxadiazol-5-one]
CCC(OCc1ccc(-c2noc(=O)[nH]2)c(F)c1)c1sc(-c2ccc(C(F)(F)F)cc2)nc1C (racemic) [Example 28, 3-(2-Fluoro-4-{1-[4-methyl-2-(4-trifluoromethyl}-phenyl)-thiazol-5-vil-propoxymethyl]-phenyl)-4H-[1,2,4]oxadiazol-5-one]
CCC(F)(F)C(Oc1ccc(-c2noc(=O)[nH]2)c(Cl)c1)c1sc(-c2ccc(C(F)(F)F)cc2)nc1C (racemic) [Example 21, 3-(2-Chloro-4-{2,2-difluoro-1-[4-methyl-2-(4-trifluoromethyl-phenyl)-thiazol-5-yl]-butoxy}-phenyl)-4H-[1,2,4]oxadiazol-5-one]
